Assay results published in patent US20070269808A1 (published 2007).
These are yes or no findings as the source states them, for the method shown. In cells and extracts the contact can be indirect. Some binding calls cover weakened binding; strength is not graded here. Where a sequence is shown, tags or fusion partners need not be part of it.

Key:
[1] = target: T1, wingless (Wg) protein (Drosophila) (UniProt P09615); assay: pull-down, gel electrophoresis and fluorography
T1 sequence (looked up): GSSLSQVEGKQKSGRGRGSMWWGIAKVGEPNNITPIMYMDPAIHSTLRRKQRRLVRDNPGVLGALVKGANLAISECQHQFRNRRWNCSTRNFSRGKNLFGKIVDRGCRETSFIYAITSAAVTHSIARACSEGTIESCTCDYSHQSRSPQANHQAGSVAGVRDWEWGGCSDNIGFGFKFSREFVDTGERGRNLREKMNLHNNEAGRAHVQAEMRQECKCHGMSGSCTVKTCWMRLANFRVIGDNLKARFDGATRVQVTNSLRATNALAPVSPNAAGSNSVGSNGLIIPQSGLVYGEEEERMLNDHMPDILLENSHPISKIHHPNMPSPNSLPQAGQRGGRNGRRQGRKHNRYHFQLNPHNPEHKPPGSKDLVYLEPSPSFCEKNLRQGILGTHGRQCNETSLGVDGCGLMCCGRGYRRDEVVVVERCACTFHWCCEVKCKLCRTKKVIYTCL

[2] = target: T1, wingless (Wg) protein (Drosophila); assay: pull-down and fluorography, figure legend of FIG. 6
[3] = target: T1, wingless (Wg) protein (Drosophila); assay: pull-down from 35S-labeled HS-wg/S2 conditioned medium with sepharose-Protein A beads, gel electrophoresis and fluorography

Measured: binding

B1: Dfz2/IgG fusion protein (cysteine-rich amino-terminal domain of Dfz2 linked to the constant domain of human IgG) (Fc fusion, not shown: a dimerising Fc or GST)
chain: DGPLHSADHGMGGMGMGGHGLDASPAPGYGVPAIPKDPNLRCEEITIPMCRGIGYNMTSFPNEMNHETQDEAGLEVHQFWPLVEIKCSPDLKFFLCSMYTPICLEDYHKPLPVCRSVCERARSGCAPIMQQYSFEWPERMACEHLPLHGDPDNLCMEQ
binds: all assays above
